This passage reports binding results from patent US20100266575A1.

For test [1], the target named is sFlt-1 antigen (domains 1-3; R&D Systems) (human). The test is described as follows: double-mAb sandwich CMIA on … (Example 7); positive = RLU > 400,000 at 1,000 pg/mL calibrator.
For test [2] the target is unchanged. The test is described as follows: sandwich CMIA on … (Example 7): sFlt-1 antigen captured by a mAb on microparticles, PlGF-acridinium as conjugate; positive = RLU > 400,000 at 1,000 pg/mL calibrator.

Results are given in words; binding and its absence hold for the method and conditions named. Binding calls can cover weak binding; strength is not graded here.

B1: anti-sFlt-1 monoclonal antibody 1-833-527 (antibody, V domains shown)
VH: QVQLQQSGAELVGPGSSVKISCKASGYAFSSYWMNWVKQRPGQGLEWIGQIYPGDGDTNYNGKFRGKVTLTADRSSSTADMQLSSLTSEDSAVYFCARDDGYEGFDYWGQGTTLTVSS
VL: DIVMTQSQKFMSTTVGDRVSLTCKASQSVGTAVAWYQEKTGQSPKLLIYSASNRYTGVPDRFTGSGSGTDFILTIRNMQSVDLADYFCQQYFTYPYTFGGGTKLEIQR
On to B1, for which the binding entry in test [1] is “binds”.

B2: placental growth factor (PlGF) (ligand, UniProt P49763-2 21-149, looked up)
chain: AVPPQQWALSAGNGSSEVEVVPFQEVWGRSYCRALERLVDVVSEYPSEVEHMFSPSCVSLLRCTGCCGDENLHCVPVETANVTMQLLKIRSGDRPSYVELTFSQHVRCECRPLREKMKPERCGDAVPRR
Turning to B2, the binding entry in test [2] is “binds”.
